Data published in article doi:10.1101/2024.07.08.602551.
Like-named read-outs stand apart in the source and are kept apart here. No constants are given. Whether binding was seen depends on the method and setting. For some assays here: Binding seen in cells or lysates may run through a third protein. For some assays here: A result given as binding can be weak or reduced; the word gives no strength. For some assays here: Tags and fused reporters may be left off the sequences shown.

Chains of the proteins cited; added tags and fusions are not shown. Lines headed by an entry give the natural chain unless they say otherwise; changes in a name come on top.
UniProt Q24025: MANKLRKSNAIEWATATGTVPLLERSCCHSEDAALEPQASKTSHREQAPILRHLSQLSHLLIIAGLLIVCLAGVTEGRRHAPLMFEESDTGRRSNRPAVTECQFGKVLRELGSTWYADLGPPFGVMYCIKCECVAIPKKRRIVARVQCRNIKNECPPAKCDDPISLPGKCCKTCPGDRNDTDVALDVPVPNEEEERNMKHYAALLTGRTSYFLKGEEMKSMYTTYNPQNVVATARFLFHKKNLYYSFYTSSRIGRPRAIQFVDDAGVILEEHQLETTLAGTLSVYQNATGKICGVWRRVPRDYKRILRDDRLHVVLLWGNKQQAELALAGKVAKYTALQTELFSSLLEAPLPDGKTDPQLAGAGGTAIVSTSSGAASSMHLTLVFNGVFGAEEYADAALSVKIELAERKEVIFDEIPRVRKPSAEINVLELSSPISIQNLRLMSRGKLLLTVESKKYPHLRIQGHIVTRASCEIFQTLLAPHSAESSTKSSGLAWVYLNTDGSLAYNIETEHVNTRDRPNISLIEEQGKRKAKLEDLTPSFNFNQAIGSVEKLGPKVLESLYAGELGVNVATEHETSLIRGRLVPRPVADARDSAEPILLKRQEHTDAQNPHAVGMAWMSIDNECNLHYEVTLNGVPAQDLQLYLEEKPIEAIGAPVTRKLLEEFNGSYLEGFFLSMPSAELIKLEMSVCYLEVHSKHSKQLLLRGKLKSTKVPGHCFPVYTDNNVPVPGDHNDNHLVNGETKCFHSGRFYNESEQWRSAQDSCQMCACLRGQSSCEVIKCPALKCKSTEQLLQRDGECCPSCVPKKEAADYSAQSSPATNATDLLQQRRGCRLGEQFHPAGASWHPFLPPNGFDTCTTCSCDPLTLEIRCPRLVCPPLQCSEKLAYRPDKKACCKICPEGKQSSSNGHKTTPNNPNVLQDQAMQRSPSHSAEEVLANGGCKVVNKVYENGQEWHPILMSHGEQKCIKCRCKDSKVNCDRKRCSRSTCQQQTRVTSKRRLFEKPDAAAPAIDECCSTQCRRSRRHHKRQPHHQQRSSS
UniProt Q9H2X0: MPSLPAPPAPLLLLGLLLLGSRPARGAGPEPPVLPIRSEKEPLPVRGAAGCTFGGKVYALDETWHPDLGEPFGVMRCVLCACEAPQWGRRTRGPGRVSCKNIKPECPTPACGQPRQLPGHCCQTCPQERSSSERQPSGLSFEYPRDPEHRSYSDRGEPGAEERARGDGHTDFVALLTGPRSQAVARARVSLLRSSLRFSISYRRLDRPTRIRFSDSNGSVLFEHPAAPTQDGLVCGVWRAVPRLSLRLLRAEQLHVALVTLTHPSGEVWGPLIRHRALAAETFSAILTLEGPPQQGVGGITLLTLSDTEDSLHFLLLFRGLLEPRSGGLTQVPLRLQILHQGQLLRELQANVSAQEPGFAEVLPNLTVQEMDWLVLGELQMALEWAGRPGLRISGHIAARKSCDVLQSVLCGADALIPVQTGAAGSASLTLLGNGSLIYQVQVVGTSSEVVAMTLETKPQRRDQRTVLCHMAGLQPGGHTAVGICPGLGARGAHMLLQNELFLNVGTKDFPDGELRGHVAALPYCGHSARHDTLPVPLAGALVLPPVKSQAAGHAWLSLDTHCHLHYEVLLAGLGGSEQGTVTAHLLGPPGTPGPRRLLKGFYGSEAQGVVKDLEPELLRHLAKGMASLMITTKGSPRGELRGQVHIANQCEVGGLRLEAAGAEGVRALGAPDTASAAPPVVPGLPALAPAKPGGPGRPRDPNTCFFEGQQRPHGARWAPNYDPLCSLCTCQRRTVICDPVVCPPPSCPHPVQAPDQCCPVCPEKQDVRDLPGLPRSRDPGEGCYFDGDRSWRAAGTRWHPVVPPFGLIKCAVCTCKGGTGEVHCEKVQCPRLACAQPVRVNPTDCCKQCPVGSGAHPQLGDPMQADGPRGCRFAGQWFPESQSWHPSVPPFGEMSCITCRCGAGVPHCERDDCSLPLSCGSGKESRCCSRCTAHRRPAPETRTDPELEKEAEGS

Assays:
[1] = target: T1, Drosophila Twisted gastrulation with C-terminal ALFA tag (Drosophila) (UniProt P54356); assay: co-IP
T1 sequence: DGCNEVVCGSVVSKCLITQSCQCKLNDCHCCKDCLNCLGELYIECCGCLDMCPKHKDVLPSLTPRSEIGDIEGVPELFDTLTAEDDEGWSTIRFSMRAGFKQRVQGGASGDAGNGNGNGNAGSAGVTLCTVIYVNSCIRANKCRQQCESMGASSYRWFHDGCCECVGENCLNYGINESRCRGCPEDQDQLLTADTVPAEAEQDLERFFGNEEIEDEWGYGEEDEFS

[2] = target: T2, Drosophila Tsg double mutant Leu100Ala, Δtail with ALFA tag (Drosophila) (UniProt P54356); assay: co-IP
T2 sequence: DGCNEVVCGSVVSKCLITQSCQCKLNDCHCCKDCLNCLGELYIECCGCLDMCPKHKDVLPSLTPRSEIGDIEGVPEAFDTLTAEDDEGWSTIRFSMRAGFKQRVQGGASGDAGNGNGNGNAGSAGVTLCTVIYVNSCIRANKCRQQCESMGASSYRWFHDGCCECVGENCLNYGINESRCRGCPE

[3] = target: T1, Drosophila Twisted gastrulation with C-terminal ALFA tag (Drosophila); assay: co-IP; remark: listed apart in the source
[4] = target: T1, Drosophila Twisted gastrulation with C-terminal ALFA tag (Drosophila); assay: co-IP; remark: listed apart in the source
[5] = target: T3, human Twisted gastrulation Leu103Ala (human) (UniProt Q9GZX9); assay: SPR
T3 sequence: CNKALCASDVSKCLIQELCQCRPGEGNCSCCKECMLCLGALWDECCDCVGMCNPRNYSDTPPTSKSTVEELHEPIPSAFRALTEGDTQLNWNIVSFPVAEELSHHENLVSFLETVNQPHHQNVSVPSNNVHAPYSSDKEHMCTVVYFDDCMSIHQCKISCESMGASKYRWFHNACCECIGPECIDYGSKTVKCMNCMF

Row | Substance | binding [1] | binding [2] | binding [3] | binding [4] | binding [5]
1 | Drosophila Short gastrulation with Myc tag (from UniProt Q24025) | binds | no binding | binds | binds | –
2 | human ΔN-Chordin (from UniProt Q9H2X0) (domain or fragment) | – | – | – | – | no binding
